Test results reported in PMC8304285.

Sequences of proteins named here, by UniProt entry; tags and fusion partners are left off. A change or cut given only in a name is not applied to a line headed by its entry.
UniProt Q8S4L4: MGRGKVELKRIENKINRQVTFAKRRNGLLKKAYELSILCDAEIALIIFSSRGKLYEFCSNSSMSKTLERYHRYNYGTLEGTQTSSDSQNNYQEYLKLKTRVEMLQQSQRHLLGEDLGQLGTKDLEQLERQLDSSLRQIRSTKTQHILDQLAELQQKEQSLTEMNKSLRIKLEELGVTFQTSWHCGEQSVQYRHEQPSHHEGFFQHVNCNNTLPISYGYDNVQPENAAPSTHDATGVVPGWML

Experiments:
[1] = molecular target: FRUITFULL 2 (FUL2) (tomato); experiment: two-hybrid; yeast, HybriZAP-2.1 system; pAD-GAL4 fusion against pBD-GAL4-Cam fusion; growth on -LTA medium; room temperature and 30 °C, same results
[2] = molecular target: TOMATO AGAMOUS-LIKE 1 (TAGL1) (tomato) (UniProt E9JUM2); experiment: as above
[3] = molecular target: FRUITFULL 2 (FUL2) (tomato); experiment: two-hybrid; yeast, HybriZAP-2.1 system; pAD-GAL4 fusion against pBD-GAL4-Cam fusion; X-gal test; room temperature and 30 °C, same results
[4] = molecular target: TOMATO AGAMOUS-LIKE 1 (TAGL1) (tomato) (UniProt E9JUM2); experiment: as above
[5] = molecular target: FRUITFULL 2 (FUL2) (tomato); experiment: two-hybrid; yeast, HybriZAP-2.1 system; pAD-GAL4 fusion against pBD-GAL4-Cam fusion; growth on -LTH medium + 10 mM 3AT; room temperature and 30 °C, same results
[6] = molecular target: TOMATO AGAMOUS-LIKE 1 (TAGL1) (tomato) (UniProt E9JUM2); experiment: as above

Measured: binding

RIN1 (MADS-domain RIPENING INHIBITOR, isoform RIN1) (from UniProt Q8S4L4 1-242)
binds: all assays above

These are yes or no findings as the source states them, for the method shown. Binding can be weak; no strength is given.
